Sequences of proteins named here, by UniProt entry; tags and fusion partners are left off. A change or cut given only in a name is not applied to a line headed by its entry.
UniProt Q3KQV9: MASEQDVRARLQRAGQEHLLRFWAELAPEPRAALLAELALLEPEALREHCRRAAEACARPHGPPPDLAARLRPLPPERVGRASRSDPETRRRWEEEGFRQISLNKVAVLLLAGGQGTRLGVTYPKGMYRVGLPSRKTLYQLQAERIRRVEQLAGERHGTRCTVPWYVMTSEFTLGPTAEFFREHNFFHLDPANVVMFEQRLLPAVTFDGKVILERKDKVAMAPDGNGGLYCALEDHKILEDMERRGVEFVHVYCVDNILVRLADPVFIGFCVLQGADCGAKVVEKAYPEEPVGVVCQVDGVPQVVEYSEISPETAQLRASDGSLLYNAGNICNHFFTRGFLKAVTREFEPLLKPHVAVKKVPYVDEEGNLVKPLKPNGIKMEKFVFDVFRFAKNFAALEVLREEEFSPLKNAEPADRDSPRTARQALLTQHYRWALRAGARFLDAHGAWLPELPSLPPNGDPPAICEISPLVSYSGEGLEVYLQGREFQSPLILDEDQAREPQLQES
UniProt Q15389: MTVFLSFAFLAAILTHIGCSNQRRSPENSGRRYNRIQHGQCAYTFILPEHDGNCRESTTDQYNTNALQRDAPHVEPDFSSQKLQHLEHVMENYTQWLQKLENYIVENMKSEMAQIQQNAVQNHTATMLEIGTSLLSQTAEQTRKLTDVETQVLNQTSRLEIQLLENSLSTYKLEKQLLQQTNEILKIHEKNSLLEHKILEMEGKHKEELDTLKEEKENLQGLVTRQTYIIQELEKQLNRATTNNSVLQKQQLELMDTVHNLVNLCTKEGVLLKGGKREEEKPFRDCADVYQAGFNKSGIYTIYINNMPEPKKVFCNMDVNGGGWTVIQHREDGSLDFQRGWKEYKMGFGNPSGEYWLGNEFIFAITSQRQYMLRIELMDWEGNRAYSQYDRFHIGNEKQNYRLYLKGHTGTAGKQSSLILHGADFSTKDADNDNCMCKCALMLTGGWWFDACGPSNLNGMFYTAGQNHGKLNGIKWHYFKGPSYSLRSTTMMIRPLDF
UniProt Q2M3D2: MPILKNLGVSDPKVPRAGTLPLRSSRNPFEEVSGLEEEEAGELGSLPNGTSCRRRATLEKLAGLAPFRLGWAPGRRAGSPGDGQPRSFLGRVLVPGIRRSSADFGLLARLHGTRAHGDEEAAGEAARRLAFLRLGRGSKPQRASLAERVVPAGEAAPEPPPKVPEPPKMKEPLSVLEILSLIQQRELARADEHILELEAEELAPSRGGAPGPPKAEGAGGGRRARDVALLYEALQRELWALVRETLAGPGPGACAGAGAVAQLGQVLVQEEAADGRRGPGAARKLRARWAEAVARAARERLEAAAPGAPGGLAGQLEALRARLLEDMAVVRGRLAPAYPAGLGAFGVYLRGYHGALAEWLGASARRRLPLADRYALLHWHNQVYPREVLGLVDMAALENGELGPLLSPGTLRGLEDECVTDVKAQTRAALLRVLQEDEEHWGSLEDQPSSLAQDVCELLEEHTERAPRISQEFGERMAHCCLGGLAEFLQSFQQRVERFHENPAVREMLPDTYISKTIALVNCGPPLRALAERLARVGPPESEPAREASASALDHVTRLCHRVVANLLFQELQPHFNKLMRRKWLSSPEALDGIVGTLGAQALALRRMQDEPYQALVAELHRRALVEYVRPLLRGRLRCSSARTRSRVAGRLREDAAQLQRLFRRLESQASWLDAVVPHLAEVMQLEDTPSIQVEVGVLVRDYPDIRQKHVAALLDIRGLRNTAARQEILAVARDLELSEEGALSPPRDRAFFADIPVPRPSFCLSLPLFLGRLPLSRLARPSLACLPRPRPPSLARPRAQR
UniProt Q2KHR3: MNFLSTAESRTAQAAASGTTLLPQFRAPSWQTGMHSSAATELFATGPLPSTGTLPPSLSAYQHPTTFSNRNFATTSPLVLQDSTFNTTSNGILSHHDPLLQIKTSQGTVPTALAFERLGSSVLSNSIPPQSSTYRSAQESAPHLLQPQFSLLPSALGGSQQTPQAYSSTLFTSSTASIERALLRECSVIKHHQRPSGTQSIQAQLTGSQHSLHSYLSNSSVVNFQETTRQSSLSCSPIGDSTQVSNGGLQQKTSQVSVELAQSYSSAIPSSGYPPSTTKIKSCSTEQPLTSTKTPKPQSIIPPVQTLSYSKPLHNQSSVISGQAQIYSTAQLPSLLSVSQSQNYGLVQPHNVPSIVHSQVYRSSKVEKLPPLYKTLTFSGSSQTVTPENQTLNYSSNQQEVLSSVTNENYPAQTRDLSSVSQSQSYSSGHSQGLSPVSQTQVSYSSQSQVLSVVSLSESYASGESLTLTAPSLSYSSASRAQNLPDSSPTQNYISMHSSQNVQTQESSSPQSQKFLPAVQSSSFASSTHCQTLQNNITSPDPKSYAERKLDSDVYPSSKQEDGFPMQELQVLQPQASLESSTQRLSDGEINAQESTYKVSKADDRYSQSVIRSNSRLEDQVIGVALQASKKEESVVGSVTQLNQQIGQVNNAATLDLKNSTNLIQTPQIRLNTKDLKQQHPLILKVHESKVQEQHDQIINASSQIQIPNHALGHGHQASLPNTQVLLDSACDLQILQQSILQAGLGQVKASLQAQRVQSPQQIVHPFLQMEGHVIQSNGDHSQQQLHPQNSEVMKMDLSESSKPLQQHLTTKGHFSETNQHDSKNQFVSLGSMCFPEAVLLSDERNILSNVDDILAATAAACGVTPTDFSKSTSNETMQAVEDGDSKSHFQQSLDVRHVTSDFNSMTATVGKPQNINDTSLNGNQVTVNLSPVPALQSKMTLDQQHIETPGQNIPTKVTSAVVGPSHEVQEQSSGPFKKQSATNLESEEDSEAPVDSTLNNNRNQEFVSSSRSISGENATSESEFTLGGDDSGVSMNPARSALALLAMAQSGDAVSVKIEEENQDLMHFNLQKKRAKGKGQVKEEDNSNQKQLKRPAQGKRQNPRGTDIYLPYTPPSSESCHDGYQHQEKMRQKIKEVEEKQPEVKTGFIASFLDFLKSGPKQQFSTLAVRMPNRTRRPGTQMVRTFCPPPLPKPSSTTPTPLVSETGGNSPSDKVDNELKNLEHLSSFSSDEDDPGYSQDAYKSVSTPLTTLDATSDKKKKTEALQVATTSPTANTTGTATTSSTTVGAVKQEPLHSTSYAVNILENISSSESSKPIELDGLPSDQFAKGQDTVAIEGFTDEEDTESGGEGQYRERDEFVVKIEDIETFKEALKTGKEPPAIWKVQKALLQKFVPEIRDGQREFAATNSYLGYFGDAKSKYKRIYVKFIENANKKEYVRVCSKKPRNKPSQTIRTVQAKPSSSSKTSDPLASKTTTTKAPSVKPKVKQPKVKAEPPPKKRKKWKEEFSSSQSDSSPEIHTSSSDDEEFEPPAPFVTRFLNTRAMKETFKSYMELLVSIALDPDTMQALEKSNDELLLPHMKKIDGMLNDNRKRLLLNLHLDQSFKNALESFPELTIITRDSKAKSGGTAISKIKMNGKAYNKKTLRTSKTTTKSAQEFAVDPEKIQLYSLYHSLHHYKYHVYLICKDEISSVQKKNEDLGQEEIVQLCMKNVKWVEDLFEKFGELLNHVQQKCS
UniProt Q15631: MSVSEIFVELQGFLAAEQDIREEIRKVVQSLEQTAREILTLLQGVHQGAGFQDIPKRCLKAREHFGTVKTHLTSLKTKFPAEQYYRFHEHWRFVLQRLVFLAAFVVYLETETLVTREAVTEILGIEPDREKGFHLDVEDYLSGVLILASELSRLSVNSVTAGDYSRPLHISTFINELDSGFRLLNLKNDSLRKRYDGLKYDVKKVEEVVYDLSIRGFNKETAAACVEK
UniProt Q17RS7: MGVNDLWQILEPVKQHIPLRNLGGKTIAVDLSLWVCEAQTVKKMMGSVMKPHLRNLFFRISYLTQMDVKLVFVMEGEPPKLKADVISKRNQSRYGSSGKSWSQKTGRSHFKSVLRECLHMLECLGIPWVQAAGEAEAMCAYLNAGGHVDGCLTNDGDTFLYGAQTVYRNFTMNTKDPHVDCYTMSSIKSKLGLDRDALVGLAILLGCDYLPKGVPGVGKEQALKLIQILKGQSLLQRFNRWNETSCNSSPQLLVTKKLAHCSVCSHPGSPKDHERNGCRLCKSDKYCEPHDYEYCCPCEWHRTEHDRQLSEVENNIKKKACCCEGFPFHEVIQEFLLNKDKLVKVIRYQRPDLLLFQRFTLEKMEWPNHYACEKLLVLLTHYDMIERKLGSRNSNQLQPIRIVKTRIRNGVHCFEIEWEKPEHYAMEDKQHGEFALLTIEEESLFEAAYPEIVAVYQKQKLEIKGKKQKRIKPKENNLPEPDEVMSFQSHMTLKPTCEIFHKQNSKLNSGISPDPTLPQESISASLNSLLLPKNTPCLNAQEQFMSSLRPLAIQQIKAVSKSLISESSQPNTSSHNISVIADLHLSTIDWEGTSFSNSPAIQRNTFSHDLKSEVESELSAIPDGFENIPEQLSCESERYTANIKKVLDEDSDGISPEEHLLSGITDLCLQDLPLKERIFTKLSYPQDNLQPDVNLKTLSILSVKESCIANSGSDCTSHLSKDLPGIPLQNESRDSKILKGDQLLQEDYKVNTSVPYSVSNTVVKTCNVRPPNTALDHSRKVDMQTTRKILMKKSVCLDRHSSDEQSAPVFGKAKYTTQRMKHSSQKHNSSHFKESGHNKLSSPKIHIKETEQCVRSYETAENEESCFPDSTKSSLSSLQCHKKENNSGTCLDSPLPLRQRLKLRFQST
UniProt Q16384, whole entry: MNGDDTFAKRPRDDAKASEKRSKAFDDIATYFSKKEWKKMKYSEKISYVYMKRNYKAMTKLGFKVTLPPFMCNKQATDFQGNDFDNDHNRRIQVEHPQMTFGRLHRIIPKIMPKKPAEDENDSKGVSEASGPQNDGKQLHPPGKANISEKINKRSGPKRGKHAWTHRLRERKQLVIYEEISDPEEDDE
UniProt Q15935: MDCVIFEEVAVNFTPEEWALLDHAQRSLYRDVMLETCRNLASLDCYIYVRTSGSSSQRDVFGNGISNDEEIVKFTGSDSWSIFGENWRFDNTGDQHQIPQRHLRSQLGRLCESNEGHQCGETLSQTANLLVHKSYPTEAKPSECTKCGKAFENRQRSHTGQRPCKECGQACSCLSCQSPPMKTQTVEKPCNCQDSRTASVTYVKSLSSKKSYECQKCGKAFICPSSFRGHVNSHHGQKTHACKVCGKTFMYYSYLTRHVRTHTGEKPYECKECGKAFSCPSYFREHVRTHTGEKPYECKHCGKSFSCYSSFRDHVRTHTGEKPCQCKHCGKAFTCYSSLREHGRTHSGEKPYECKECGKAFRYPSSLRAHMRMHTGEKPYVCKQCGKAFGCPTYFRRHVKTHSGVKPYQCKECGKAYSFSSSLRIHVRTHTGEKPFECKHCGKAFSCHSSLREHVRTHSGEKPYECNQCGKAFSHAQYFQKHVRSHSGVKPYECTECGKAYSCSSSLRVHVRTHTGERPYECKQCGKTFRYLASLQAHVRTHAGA
UniProt Q15573: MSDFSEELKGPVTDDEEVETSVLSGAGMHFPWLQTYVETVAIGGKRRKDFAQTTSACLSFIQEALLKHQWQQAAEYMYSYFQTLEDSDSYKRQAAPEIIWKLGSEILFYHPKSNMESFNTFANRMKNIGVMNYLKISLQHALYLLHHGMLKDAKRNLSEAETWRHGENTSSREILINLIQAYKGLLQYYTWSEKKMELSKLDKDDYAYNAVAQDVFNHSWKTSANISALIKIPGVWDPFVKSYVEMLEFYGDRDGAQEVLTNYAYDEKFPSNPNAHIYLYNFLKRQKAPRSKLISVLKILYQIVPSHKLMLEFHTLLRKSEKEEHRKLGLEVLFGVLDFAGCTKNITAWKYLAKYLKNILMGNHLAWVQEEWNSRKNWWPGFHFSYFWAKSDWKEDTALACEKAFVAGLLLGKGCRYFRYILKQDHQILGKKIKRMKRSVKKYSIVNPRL

This is one part of the list. Most values lie at the level of the controls, where differences are scatter.
Each target was assayed with CN[C@@H]1C[C@H]2O[C@@](C)([C@@H]1OC)n1c3ccccc3c3c4c(c5c6ccccc6n2c5c31)C(=O)NC4 [staurosporine] (assay: log2 fold change of tryptic peptide abundance, ligand vs vehicle (limited proteolysis) (log2 ratio); higher = more trypsin-susceptible (destabilized)). Details: ligand concentration: 20 uM; sample: K562 cleared lysate; digestion: 4 min, 22 C (HT-PELSA RT4min, Orbitrap Astral).
For “UniProt Q15370 (peptide sequence: LYKDDQLLDDGK, peptide start residue: 44)”, the log2 fold change was -0.409.
For “UAP1L1 (peptide sequence: TLYQLQAER, peptide start residue: 137) (UniProt Q3KQV9)”, the log2 fold change was 0.608.
“UniProt Q15389 (peptide sequence: QTYIIQELEK, peptide start residue: 226)” was tested, and the log2 fold change was -0.249.
In the case of “UniProt Q2M3D2 (peptide sequence: VVANLLFQELQPHFNK, peptide start residue: 170)”, the log2 fold change was 0.22.
With “QSER1 (peptide sequence: SVSTPLTTLDATSDKKK, peptide start residue: 1245) (UniProt Q2KHR3)” the log2 fold change was -0.598.
With “UniProt Q15631 (peptide sequence: TKFPAEQYYR, peptide start residue: 77)” the log2 fold change was 0.307.
“GEN1 (peptide sequence: DLPGIPLQNESR, peptide start residue: 722) (UniProt Q17RS7)” showed a log2 fold change of 0.171.
“SSX1 (peptide sequence: KPAEDENDSK, peptide start residue: 115) (UniProt Q16384)” showed a log2 fold change of -0.679.
Work on “ZNF77 (peptide sequence: AFICPSSFR, peptide start residue: 220) (UniProt Q15935)” yielded a log2 fold change of -0.261.
Target “TSR1 (peptide sequence: RGHIKEPLGTHGHMK, peptide start residue: 738) (UniProt Q2NL82)” has a log2 fold change of 0.264.
In the case of “TAF1A (peptide sequence: LGSEILFYHPK, peptide start residue: 102) (UniProt Q15573)”, the log2 fold change was -0.587.

Source: the supplement of paper PMC12819154, “High-throughput peptide-centric local stability assay extends protein–ligand identification to membrane proteins, tissues and bacteria” (Nature Structural & Molecular Biology, 2025)
